We go through three substances from patent US8486892B2 (Novo Nordisk Health Care AG, priority 2008, dated 2013).

This data set can be described thus: general procedure: Fmoc solid-phase peptide synthesis; Fmoc protected Rink amide resin (Novabiochem) (peptide amides) or Wang resin (peptide acids); HBTU. The conditions noted are these: whole synthesis, scale of the general procedure 0.25 mmol; for final purity (method not given): ELS.

As to “Propyloxycarbonyl-HomoArg-Glu-Asn-Cha-[HN—(CH2—CH2—O)2—(CH2)—C(═O)]5—NH2”, the “final purity (method not given)” value amounted to 100%.

As for “Propyloxycarbonyl-(4-amidino-Phe)-Glu-Asn-Cha-[HN—(CH2—CH2—O)2—(CH2)—C(═O)]5—NH2”, the “final purity (method not given)” value worked out at 98%.

In the case of “Propyloxycarbonyl-(4-amidinoPhe)-Glu-Asn-Cha-Arg-Arg-Arg-NH2”, the “final HPLC purity” value (214 nm) came to 91%.
